Reference: publication PMC6700475
These are yes or no findings as the source states them, for the method shown. In cells and extracts the contact can be indirect. Some results given as binding are weak or reduced against the parent protein; the word gives no strength.

By UniProt entry, the sequences of proteins in these tests, tags left out.
UniProt Q15554: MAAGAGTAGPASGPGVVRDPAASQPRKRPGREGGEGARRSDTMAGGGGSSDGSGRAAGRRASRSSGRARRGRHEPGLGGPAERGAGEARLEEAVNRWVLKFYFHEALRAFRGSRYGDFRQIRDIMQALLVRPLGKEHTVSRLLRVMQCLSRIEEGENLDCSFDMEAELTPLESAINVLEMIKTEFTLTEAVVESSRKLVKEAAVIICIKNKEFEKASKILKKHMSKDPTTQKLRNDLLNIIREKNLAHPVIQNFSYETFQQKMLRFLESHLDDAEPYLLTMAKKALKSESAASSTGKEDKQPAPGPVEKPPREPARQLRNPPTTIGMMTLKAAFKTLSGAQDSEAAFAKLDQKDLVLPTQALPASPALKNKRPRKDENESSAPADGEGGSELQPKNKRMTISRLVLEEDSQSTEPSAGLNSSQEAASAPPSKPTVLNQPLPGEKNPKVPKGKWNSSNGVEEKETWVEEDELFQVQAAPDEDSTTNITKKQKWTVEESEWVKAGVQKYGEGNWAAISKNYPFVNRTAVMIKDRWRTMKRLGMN
UniProt Q99497: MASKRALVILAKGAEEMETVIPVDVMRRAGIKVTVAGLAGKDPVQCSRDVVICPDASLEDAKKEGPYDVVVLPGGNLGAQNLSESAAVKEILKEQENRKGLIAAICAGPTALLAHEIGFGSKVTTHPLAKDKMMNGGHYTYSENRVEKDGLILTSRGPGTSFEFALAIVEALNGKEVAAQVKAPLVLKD

Experiments:
[1] = biological target: T1, phosphoglycerate kinase 1 (PGK1) (human (endogenous in A2780 and HCT116)) (UniProt P00558); assay: co-IP; reciprocal co-immunoprecipitation of endogenous PGK1 (ab90787) and DJ1 (ab18257) on Dynabeads M270 from A2780 lysates, 30 minutes at 4 °C, 100 mM NaCl; cells treated with vehicle or 10 nM CRT0063465 for 1 hour; immunoblot
T1 sequence: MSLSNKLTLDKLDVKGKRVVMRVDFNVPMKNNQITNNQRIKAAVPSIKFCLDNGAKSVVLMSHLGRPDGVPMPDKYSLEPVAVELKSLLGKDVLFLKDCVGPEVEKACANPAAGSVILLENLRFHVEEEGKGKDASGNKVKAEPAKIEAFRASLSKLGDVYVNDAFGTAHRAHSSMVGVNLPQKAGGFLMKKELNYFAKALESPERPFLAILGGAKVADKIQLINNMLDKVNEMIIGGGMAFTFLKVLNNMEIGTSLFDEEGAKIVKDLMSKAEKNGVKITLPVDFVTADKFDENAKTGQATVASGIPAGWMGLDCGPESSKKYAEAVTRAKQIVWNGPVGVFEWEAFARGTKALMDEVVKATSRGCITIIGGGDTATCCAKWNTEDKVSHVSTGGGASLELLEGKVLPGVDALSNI

[2] = biological target: TRF2 (human (endogenous in HCT116)) (UniProt Q15554); assay: co-IP; immunoprecipitation of endogenous TRF2 (ab13579) on Dynabeads from HCT116 lysates, 30 minutes at 4 °C; cells cultured 1 week in 5 mM (physiological) or 500 μM (hypoglycemic) glucose with or without 10 nM CRT0063465; immunoblot for DJ1, PGK1, Ku80 and TRF2

PARK7/DJ1 (from UniProt Q99497 1-189)
binding [1]: binds | binding [2]: binds
